Test results reported in PubChem BioAssay AID504834 (National Center for Advancing Translational Sciences (NCATS), 2011).
The campaign covered roughly 320,000 compounds. About 22,000 (6.9%) were called active. The inconclusive results got no clear call from the source; some entries with a clear call stand among them for comparison. The call rests on the fitted dose curve; in most records, active means well fitted inhibition curve with a large enough effect; inconclusive means small, poorly fitted or top-dose-only effect, or another doubt; inactive means no such curve, though single readings can be large or run the other way. Potencies of inconclusive entries are doubtful fits and often do not repeat.
On the % scale 0 is the no-effect control and ±100 the full control effect; potency means the concentration at half of the fitted maximal effect.

Assay: Primary qHTS for delayed death inhibitors of the malarial parasite plastid, 96 hour incubation
Conditions: P. falciparum luciferase reporter growth; series mostly up to 28.7 µM; activity change, negative = inhibition: at the top concentration
Outline: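 Two parasite generations (96 h, 37 C, 5% CO2) of compound exposure in infected erythrocytes (0.05% parasitemia, 2% hematocrit). Luciferase-reporter P. falciparum; decreased luminescence indicates inhibited growth, aimed at apicoplast-acting delayed death.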
For `C=CC(=O)OCCOCCOCCOCCOC(=O)C=C`, the Potency was inconclusive: 5.22 µM [inhibitor, partial curve, poor fit].
With `O=C(CCCN1C(=O)c2cccnc2C1=O)Nc1ccc(F)cc1Cl` the Potency was inconclusive: 14.7 µM [inhibitor, partial curve].
In the case of `CCN(CC)S(=O)(=O)c1cccc(C(=O)Nc2ccc(S(=O)(=O)NC3=NCCCCC3)cc2)c1`, the Potency is reported as active: 6.57 µM.
With `COc1ccccc1NC(=O)CCC(=O)Nc1nnc(C(F)(F)F)s1` the Potency was inconclusive: 1.47 µM [inhibitor, full curve].
For `CCOC(=O)CSC1=N/C(=C\c2cccnc2)C(=O)N1c1ccc(OC)cc1`, the Potency was inconclusive: 18.5 µM [inhibitor, single point].
For `CCN1CCN(CC(=O)Nc2nc3ccc(OC)cc3s2)CC1`, the Potency was inconclusive: 2.94 µM [inhibitor, partial curve, poor fit].
In the case of `CCOc1ccccc1NC(=O)CN(c1cc(C)cc(C)c1)S(=O)(=O)c1c(C)noc1C`, the Potency is reported as inconclusive: 9.28 µM [inhibitor, single point].
In the case of `CS(=O)(=O)c1ccc(C(=O)Nc2ccc(N3CCCC3)cc2)c(Cl)c1`, the Potency is reported as inconclusive: 10.4 µM [inhibitor, single point].
For `Cc1ccc2cc(CCNC(=O)C(=O)c3c(C)[nH]c4ccccc34)c(=O)[nH]c2c1`, the “activity change, negative = inhibition” value was inactive: -25.9%.
With `CCOC(=O)C1(Cc2cccc(OC)c2)CCN(Cc2cccc3c2OCO3)CC1` the Potency was inconclusive: 18.5 µM [inhibitor, single point].
For `Cc1ccc(-n2nc3c(=O)n(CCCC(=O)NCCc4ccccc4)nc(C)c3c2C)cc1`, the Potency was inconclusive: 13.1 µM [inhibitor, single point].
With `COc1ccc(OC)c(S(=O)(=O)Nc2cc3c(cc2N2CCCC2)n(C)c(=O)c(=O)n3C)c1` the “activity change, negative = inhibition” value was inactive: -22.8%.
For `CN(C)S(=O)(=O)n1cc(/C=C(\NC(=O)c2ccccc2)C(=O)NCCCN2CCOCC2)c2ccccc21`, the Potency was inconclusive: 1.31 µM [inhibitor, full curve].
For `Nc1cc(=O)n(Cc2ccccc2)c(=O)n1-c1ccc(Cl)cc1`, the Potency was inconclusive: 14.7 µM [inhibitor, single point].
In the case of `Cn1nnnc1SCC(=O)NC1CCCC1`, the Potency is reported as inconclusive: 3.29 µM [inhibitor, partial curve, poor fit].
In the case of `COc1ccc(N/N=C(/C(N)=O)C2=NC(C)(C)Cc3ccccc32)cc1`, the Potency is reported as inconclusive: 18.5 µM [inhibitor, single point].
In the case of `CC1CCCN(c2ccc(C(=O)NCc3ccco3)cc2[N+](=O)[O-])C1` (stereo not drawn), the Potency is reported as inconclusive: 5.22 µM [inhibitor, partial curve, poor fit].
In the case of `CCN/N=C(\Cc1nc2ccccc2[nH]1)c1ccccc1`, the Potency is reported as inconclusive: 18.5 µM [inhibitor, single point].
For `O=C(OC(C(=O)NCc1ccco1)c1ccc(Cl)cc1)c1cccs1` (stereo not drawn), the “activity change, negative = inhibition” value was inactive: 86.5%.
For `O=C(NCC(c1cccs1)N1CCOCC1)c1ccccc1NS(=O)(=O)c1cccc([N+](=O)[O-])c1` (stereo not drawn), the Potency was inconclusive: 18.5 µM [inhibitor, single point].
With `CCOC(=O)c1ccc(-n2c(C)nc3ccc(Br)cc3c2=O)cc1` the Potency was inconclusive: 9.28 µM [inhibitor, single point].
For `CC(=O)N1CCSc2ccc(S(=O)(=O)NCCc3ccc(Cl)cc3)cc21`, the Potency was inconclusive: 5.22 µM [inhibitor, single point].
For `COc1ccc(CNc2cc(NCCCO)c([N+](=O)[O-])c3nonc23)cc1`, the Potency was inconclusive: 14.7 µM [inhibitor, single point].
In the case of `Cn1c(CNC(=O)c2ccco2)nnc1SCC(=O)Nc1ccc(Br)cc1F`, the Potency is reported as inconclusive: 14.7 µM [inhibitor, single point].
With `COC(=O)c1ccc2c(=O)n(CC3CCCO3)c(SCC(=O)NCCc3ccc(S(N)(=O)=O)cc3)nc2c1` (stereo not drawn) the Potency was inconclusive: 13.1 µM [inhibitor, single point].
In the case of `COc1ccc(S(=O)(=O)N(CC(=O)NCC2CCCO2)c2ccc(F)cc2)cc1OC` (stereo not drawn), the Potency is reported as inconclusive: 0.0657 µM [inhibitor, full curve, poor fit].
For `Cc1cccc(C)c1N1CCN(C(=O)Nc2ccc3c(c2)OCCO3)CC1`, the “activity change, negative = inhibition” value was inactive: -23.9%.
For `CCOc1ccc(OCCC(=O)Nc2ccc3c(c2)OCO3)cc1`, the “activity change, negative = inhibition” value was inactive: -22%.
For `O=C(COC(=O)Cc1ccccc1)Nc1nnc(-c2ccccc2)o1`, the Potency was inconclusive: 18.5 µM [inhibitor, single point].
With `COc1ccc(CN(Cc2nc3ccccc3c(=O)[nH]2)C(=O)NC2CCCCC2)cc1` the Potency was inconclusive: 18.5 µM [inhibitor, single point].
For `Fc1ccc(-c2ccc(Nc3cccc(F)c3)nn2)cc1`, the “activity change, negative = inhibition” value was inactive: 0.617%.
In the case of `CN(Cc1cccc(F)c1)CC(O)COCc1ccccc1Cl` (stereo not drawn), the Potency is reported as inconclusive: 3.7 µM [inhibitor, full curve, poor fit].
With `CC(=C/c1ccccc1)/C=N/NC(=O)c1nnn(-c2nonc2N)c1CN1CCC(C)CC1` the Potency was inconclusive: 0.131 µM [inhibitor, full curve, poor fit].
In the case of `CC1CCCN(CCCOc2ccccc2-c2ccccc2)C1` (stereo not drawn), the “activity change, negative = inhibition” value is reported as inactive: -11.2%.
For `CC(=O)c1ccc(S(=O)(=O)N2CCC(c3nnc(SCCN4CCCC4)n3C)CC2)cc1`, the Potency was inconclusive: 20.8 µM [inhibitor, partial curve, poor fit].
In the case of `Cc1ccc(NC(=S)Nc2cccc3cnccc23)cc1`, the Potency is reported as inconclusive: 23.3 µM [inhibitor, partial curve, poor fit].
With `COCCNC(=S)N(CCc1c(C)[nH]c2ccc(C)cc12)Cc1cccnc1` the Potency was active: 1.65 µM.
With `Cc1ccc(C(=O)NC(=S)Nc2ccc(-c3cc4ccccc4oc3=O)cc2)c(C)c1` the Potency was inconclusive: 8.28 µM [inhibitor, single point].
With `CC(C)(CNc1ccc([N+](=O)[O-])cc1C#N)N1CCOCC1` the Potency was inconclusive: 0.0928 µM [inhibitor, partial curve, poor fit].
For `Cc1c(C(=O)NC2CCCCC2)oc2c1C(=O)CC(C)(C)C2`, the Potency was inconclusive: 2.94 µM [inhibitor, single point].
In the case of `Cc1ccc(C)c2sc(NC(=O)c3ccc(N4CCCCC4)c([N+](=O)[O-])c3)nc12`, the Potency is reported as inconclusive: 2.08 µM [inhibitor, full curve, poor fit].
For `Cc1noc(C)c1-c1nc(CSc2ccccc2)no1`, the “activity change, negative = inhibition” value was inactive: 31.3%.
With `O=C(CN1C(=O)CSc2ccccc21)Nc1ccc2c(c1)OCCO2` the “activity change, negative = inhibition” value was inactive: 23.8%.
In the case of `C=CCOc1ccc2ccccc2c1/C=N/O`, the “activity change, negative = inhibition” value is reported as inactive: 18.9%.
With `O=C(Nc1ccc(S(=O)(=O)Nc2ccccn2)cc1)c1cccc(Br)c1` the Potency was inconclusive: 10.4 µM [inhibitor, single point].
For `CCOC(=O)c1c(-c2ccsc2)csc1N`, the “activity change, negative = inhibition” value was inactive: -3.77%.
With `COc1cccc(C(=O)Nc2cc3c(cc2N2CCCC2)n(C)c(=O)n3C)c1` the Potency was active: 11.7 µM.
For `CN(CC(=O)Nc1ccc(F)cc1)C(=O)c1ccccc1OCc1ccc(F)cc1`, the Potency was inconclusive: 18.5 µM [inhibitor, single point].
For `CCOc1ccc2nc(NC(=O)CSc3cn[nH]n3)sc2c1`, the “activity change, negative = inhibition” value was inactive: -24.7%.
With `Cn1c(=O)c2cc(S(=O)(=O)Nc3cc(C(=O)O)cc(C(=O)O)c3)ccc2n(C)c1=O` the “activity change, negative = inhibition” value was inactive: 25.3%.
For `COc1cccc(OC)c1C(=O)Nc1cc(C)on1`, the Potency was inconclusive: 0.0026 µM [inhibitor, full curve, poor fit].
With `COc1cc(C(=O)Nc2ccc3c(c2)Cc2cc(NC(=O)c4cc(OC)c(OC)c(OC)c4)ccc2-3)cc(OC)c1OC` the Potency was inconclusive: 18.5 µM [inhibitor, single point].
In the case of `COc1ccc(N2C(=O)CSC2c2ccccc2)cc1` (stereo not drawn), the “activity change, negative = inhibition” value is reported as inactive: 21%.
For `CS(=O)(=O)N(CC(=O)Nc1ccccc1C(=O)N1CCOCC1)c1ccc(F)c(Cl)c1`, the “activity change, negative = inhibition” value was inactive: 30%.
In the case of `CCOc1ccc2nc(NC(=O)CN3C(=O)C4CCCCC4C3=O)sc2c1` (stereo not drawn), the “activity change, negative = inhibition” value is reported as inactive: 36.8%.
In the case of `COc1ccccc1-c1nc(SCC(=O)NCC2CCCO2)c2c(=O)n(C)c(=O)n(C)c2n1` (stereo not drawn), the Potency is reported as inconclusive: 9.28 µM [inhibitor, single point].
For `COc1ccc(OC)c(NC(=O)CCc2nnc3ccc(N4CCC(C)CC4)nn23)c1`, the “activity change, negative = inhibition” value was inactive: 34.3%.
For `O=C(CSc1ccccc1)NCc1ccccn1`, the Potency was inconclusive: 14.7 µM [inhibitor, partial curve, poor fit].
With `COc1ccc2[nH]cc(CCNC(=O)C3CCCCC3)c2c1` the Potency was inconclusive: 18.5 µM [inhibitor, partial curve, poor fit].
With `Cc1ccc(OCCC(=O)OCC(=O)N2CCN(S(=O)(=O)c3ccc(C)cc3)CC2)cc1` the “activity change, negative = inhibition” value was inactive: 89.3%.
In the case of `Cc1sc(NC(=O)C2=COCCO2)nc1-c1ccc(F)cc1`, the Potency is reported as inconclusive: 3.29 µM [inhibitor, full curve, poor fit].
In the case of `COC(=O)c1c(C)[nH]c(C(=O)C(C)OC(=O)c2cnc(C)cn2)c1C` (stereo not drawn), the Potency is reported as inconclusive: 2.94 µM [inhibitor, single point].
For `O=C(CCS(=O)(=O)Cc1ccccc1F)NCCCN1CCCCC1`, the Potency was inconclusive: 18.5 µM [inhibitor, partial curve, poor fit].
For `COc1cc(NC(=O)c2cccnc2SC)cc(OC)c1OC`, the “activity change, negative = inhibition” value was inactive: 12.8%.
In the case of `Cc1ccc(C(=O)N2N=C(c3ccccc3O)CC2c2ccccc2)cc1` (stereo not drawn), the Potency is reported as inconclusive: 14.7 µM [inhibitor, single point].
In the case of `COc1cc2cc(-c3ccc(O)cc3O)nc(C)c2cc1OC`, the Potency is reported as inconclusive: 9.28 µM [inhibitor, partial curve, poor fit].
For `Cc1cc(C)c2nc(SCC#N)cc(C)c2c1`, the “activity change, negative = inhibition” value was inactive: -24.4%.
In the case of `COc1ccc(C(=O)c2ccc(Br)cc2)cc1`, the Potency is reported as inconclusive: 0.262 µM [inhibitor, full curve, poor fit].
